This is an account of results in PMC4586916.

Chains of the proteins cited; added tags and fusions are not shown. Lines headed by an entry give the natural chain unless they say otherwise; changes in a name come on top. A line that says so, or that is headed by a name, gives the form on record, which may keep a tag or linker. Residues count along the entry.
UniProt Q92993: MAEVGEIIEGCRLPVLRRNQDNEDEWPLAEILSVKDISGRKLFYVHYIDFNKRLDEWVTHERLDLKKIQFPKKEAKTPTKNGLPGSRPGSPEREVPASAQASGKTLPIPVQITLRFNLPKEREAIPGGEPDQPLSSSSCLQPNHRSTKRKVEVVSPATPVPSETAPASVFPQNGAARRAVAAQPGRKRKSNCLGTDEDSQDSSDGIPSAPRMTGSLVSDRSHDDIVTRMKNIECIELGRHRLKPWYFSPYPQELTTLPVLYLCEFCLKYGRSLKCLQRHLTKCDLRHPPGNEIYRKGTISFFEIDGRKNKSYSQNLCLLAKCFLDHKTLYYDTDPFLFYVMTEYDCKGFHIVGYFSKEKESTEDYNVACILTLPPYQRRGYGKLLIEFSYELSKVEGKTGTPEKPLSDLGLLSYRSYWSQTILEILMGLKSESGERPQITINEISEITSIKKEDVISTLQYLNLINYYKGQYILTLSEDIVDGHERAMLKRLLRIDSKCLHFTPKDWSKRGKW
TIP60 construct F (C-terminus TIP60, excluding the chromo domain), fused to YFP: residues 66-513 of Q92993
TIP60−FLAG (Q92993-3, form named): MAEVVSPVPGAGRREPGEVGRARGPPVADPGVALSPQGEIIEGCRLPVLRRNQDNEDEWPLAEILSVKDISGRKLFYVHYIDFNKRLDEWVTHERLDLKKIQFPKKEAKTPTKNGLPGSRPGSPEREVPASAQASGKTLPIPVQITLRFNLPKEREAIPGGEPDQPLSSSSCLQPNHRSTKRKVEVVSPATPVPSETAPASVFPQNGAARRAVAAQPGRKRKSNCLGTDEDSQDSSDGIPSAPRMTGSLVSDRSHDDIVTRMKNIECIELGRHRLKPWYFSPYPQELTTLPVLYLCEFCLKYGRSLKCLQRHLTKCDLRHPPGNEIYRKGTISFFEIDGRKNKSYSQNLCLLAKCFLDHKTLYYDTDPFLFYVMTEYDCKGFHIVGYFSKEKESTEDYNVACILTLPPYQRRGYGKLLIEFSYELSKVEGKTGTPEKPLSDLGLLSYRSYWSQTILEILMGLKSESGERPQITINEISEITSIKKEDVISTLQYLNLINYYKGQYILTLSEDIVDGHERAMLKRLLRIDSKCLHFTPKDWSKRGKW
UniProt Q9UPP1, residues 37-1060: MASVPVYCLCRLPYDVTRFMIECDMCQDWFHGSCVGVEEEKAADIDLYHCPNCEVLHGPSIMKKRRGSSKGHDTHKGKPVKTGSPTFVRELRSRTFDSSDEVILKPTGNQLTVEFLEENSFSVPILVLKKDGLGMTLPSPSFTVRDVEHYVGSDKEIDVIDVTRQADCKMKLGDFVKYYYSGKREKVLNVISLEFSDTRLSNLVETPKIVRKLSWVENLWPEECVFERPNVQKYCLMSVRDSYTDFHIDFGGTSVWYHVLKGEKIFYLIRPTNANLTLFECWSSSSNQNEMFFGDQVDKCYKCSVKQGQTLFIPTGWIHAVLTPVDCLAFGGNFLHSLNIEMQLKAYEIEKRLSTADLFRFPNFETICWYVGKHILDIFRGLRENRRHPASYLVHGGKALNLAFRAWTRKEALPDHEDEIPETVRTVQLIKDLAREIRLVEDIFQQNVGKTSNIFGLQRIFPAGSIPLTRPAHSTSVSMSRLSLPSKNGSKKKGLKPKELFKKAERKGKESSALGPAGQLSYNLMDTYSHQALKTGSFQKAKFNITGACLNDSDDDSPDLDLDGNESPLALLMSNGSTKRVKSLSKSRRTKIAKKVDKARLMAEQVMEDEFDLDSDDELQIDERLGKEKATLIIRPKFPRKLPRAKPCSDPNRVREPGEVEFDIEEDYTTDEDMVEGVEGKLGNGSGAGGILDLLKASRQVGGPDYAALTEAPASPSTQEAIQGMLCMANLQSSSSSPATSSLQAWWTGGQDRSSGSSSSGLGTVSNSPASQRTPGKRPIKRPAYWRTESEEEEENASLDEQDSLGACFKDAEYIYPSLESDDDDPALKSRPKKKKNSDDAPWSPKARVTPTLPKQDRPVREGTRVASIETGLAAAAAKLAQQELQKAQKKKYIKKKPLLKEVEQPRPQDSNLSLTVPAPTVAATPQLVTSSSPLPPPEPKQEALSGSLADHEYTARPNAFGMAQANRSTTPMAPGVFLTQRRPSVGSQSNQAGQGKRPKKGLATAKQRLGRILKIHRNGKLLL

No constants are given. Whether binding was seen depends on the method and setting. In cells and extracts the contact can be indirect. Some binding calls cover weakened binding; strength is not graded here.

The target of assay [1] is TIP60−YFP (UniProt Q92993). The experiment in a line: co-IP; HEK293 cells cotransfected with a YFP fusion (bait) and a FLAG fusion (prey); anti-GFP antibody and Protein-A/G Plus-Agarose; lysis and wash buffer 5 mM HEPES pH 7.2, 0.5% NP40, 250 mM NaCl, 2 mM EDTA, 10% glycerol; on ice or 4°C; three washes; anti-FLAG Western blot. A general note: In western blotting, separated proteins are transferred to a membrane and probed.

For assay [2], the target named is TIP60 construct F (C-terminus TIP60, excluding the chromo domain), fused to YFP (UniProt Q92993). Described as above.
The target in assay [3] is PHF8−YFP (human) (UniProt Q9UPP1). Described as above.
For assay [4] the target is unchanged. Description: proximity ligation; P-LISA (Duolink II) on fixed HEK293 cells stably transfected with PHF8−YFP; mouse anti-GFP and goat anti-TIP60 primary antibodies; detects molecules less than 30 nm apart; PHF8 shRNA reduced the number of hotspots.

In the case of “PHF8−FLAG (from UniProt Q9UPP1-2 1-1024)”, the binding result in assay [1] and in assay [2] was “binds” in each case.

For the substance “TIP60−FLAG (from UniProt Q92993-3 1-546)”, the binding result in assay [3] is listed as “binds”.

Turning to “endogenous TIP60 (HEK293 cells) (from UniProt Q92993 1-513)”, the binding result in assay [4] is “binds”.
